No constants are given. Whether binding was seen depends on the method and setting. For some assays here: In cells and extracts the contact can be indirect. Some entries that bind do so weakly or less than the wild type. For some assays here: Tags and fused reporters may be left off the sequences shown.

The target of assay [1] is T1, 6Myc-tagged PGC-1α deletion mutant, amino acids 1-200 (N-terminal) (mouse) (UniProt O70343).
T1 sequence: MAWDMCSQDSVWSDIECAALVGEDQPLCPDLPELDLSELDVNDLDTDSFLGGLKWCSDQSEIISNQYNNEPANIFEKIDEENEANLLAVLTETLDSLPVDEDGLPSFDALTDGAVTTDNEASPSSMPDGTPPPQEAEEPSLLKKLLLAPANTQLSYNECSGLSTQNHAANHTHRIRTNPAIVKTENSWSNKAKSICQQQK
As to the kind of experiment: co-IP; HEK293A cells transfected with expression vectors, collected after 24 h; lysates (200 μg) incubated with antibodies at 4 °C for 2 h, Protein A-Sepharose, western blotting.

The target of assay [2] is T2, PGC-1α, full-length mouse (expressed in transfected HEK293A cells) (mouse) (UniProt O70343).
T2 sequence: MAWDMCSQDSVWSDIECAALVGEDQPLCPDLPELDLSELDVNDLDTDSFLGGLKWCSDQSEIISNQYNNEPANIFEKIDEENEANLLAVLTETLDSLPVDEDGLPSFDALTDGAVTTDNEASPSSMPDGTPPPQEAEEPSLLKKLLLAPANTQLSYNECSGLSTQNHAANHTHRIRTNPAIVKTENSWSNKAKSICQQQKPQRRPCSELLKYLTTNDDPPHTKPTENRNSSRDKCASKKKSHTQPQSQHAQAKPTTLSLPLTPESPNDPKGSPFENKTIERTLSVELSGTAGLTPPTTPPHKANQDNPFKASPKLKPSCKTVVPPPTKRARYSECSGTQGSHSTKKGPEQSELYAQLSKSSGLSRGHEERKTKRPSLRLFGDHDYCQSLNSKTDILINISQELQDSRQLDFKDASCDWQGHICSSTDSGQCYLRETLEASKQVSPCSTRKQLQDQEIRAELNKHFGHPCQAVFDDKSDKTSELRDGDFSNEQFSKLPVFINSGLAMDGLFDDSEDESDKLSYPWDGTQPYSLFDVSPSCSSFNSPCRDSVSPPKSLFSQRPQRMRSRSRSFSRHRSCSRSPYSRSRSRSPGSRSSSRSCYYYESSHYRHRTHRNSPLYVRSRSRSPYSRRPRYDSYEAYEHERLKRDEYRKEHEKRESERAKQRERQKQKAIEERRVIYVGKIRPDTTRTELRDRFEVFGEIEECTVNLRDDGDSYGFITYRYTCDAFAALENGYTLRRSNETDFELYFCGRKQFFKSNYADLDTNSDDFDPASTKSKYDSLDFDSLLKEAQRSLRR
Described as above.

The target in assay [3] is T3, MBP-fused PGC-1α deletion mutant, amino acids 1-200 (N-terminal) (mouse) (UniProt O70343).
T3 sequence: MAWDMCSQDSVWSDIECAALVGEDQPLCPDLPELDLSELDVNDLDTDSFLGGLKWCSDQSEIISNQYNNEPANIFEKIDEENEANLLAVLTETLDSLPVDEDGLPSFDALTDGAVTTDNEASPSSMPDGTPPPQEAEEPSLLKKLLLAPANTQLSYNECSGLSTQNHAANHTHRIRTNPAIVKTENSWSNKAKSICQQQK
As to the kind of experiment: pull-down; MBP-fused PGC-1α deletion mutants on amylose resin incubated with His-tagged necdin (200 ng) at 4 °C for 30 min in 20 mM Tris-HCl pH 7.5, 200 mM NaCl, 1 mM EDTA; eluted with 20 mM maltose, blotted with anti-necdin antibody; both purified.

Assay [4] deals with T4, necdin (mouse (endogenous in E14.5 forebrain)) (UniProt P25233).
T4 sequence: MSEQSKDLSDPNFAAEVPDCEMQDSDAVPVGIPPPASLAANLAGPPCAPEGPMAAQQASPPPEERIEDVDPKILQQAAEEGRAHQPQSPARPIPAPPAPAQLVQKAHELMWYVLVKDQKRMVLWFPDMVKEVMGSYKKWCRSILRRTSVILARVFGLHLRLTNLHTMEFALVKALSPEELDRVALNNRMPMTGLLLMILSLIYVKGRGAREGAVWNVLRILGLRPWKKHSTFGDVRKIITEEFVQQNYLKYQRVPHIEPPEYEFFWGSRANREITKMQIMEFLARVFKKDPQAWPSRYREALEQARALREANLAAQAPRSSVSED
The assay can be described thus: co-IP; lysates of E14.5 mouse forebrain (1 mg) incubated with guinea pig anti-necdin antibody GN1 (1:100), pelleted with Protein A-Sepharose, western blotting; controls: preimmune IgG, necdin-null extracts.

The target in assay [5] is T5, necdin (expressed in transfected HEK293A cells) (not stated (human or mouse cDNA cloned)) (UniProt P25233).
T5 sequence: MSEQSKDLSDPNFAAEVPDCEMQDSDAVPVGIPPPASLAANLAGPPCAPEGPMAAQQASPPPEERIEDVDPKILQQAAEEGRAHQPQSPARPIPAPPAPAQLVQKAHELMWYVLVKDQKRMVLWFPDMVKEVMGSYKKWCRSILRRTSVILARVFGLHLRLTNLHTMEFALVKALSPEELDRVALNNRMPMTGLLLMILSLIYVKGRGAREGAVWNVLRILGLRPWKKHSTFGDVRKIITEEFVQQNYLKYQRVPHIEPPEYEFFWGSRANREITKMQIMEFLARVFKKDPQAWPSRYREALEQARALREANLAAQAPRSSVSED
As to the kind of experiment: co-IP; HEK293A cells transfected with expression vectors, collected after 24 h; lysates (200 μg) incubated with antibodies at 4 °C for 2 h, Protein A-Sepharose, western blotting.

B1: necdin (expressed in transfected HEK293A cells) (protein, UniProt P25233 1-325)
chain: MSEQSKDLSDPNFAAEVPDCEMQDSDAVPVGIPPPASLAANLAGPPCAPEGPMAAQQASPPPEERIEDVDPKILQQAAEEGRAHQPQSPARPIPAPPAPAQLVQKAHELMWYVLVKDQKRMVLWFPDMVKEVMGSYKKWCRSILRRTSVILARVFGLHLRLTNLHTMEFALVKALSPEELDRVALNNRMPMTGLLLMILSLIYVKGRGAREGAVWNVLRILGLRPWKKHSTFGDVRKIITEEFVQQNYLKYQRVPHIEPPEYEFFWGSRANREITKMQIMEFLARVFKKDPQAWPSRYREALEQARALREANLAAQAPRSSVSED
For B1, the binding result in assay [1] and in assay [2] was “binds” throughout.

B2: His-tagged necdin (protein, UniProt P25233 1-325)
chain: MSEQSKDLSDPNFAAEVPDCEMQDSDAVPVGIPPPASLAANLAGPPCAPEGPMAAQQASPPPEERIEDVDPKILQQAAEEGRAHQPQSPARPIPAPPAPAQLVQKAHELMWYVLVKDQKRMVLWFPDMVKEVMGSYKKWCRSILRRTSVILARVFGLHLRLTNLHTMEFALVKALSPEELDRVALNNRMPMTGLLLMILSLIYVKGRGAREGAVWNVLRILGLRPWKKHSTFGDVRKIITEEFVQQNYLKYQRVPHIEPPEYEFFWGSRANREITKMQIMEFLARVFKKDPQAWPSRYREALEQARALREANLAAQAPRSSVSED
With B2, the binding entry in assay [3] is recorded as “binds”.

B3: PGC-1α (peroxisome proliferator-activated receptor γ coactivator-1α) (protein, UniProt O70343 1-797)
chain: MAWDMCSQDSVWSDIECAALVGEDQPLCPDLPELDLSELDVNDLDTDSFLGGLKWCSDQSEIISNQYNNEPANIFEKIDEENEANLLAVLTETLDSLPVDEDGLPSFDALTDGAVTTDNEASPSSMPDGTPPPQEAEEPSLLKKLLLAPANTQLSYNECSGLSTQNHAANHTHRIRTNPAIVKTENSWSNKAKSICQQQKPQRRPCSELLKYLTTNDDPPHTKPTENRNSSRDKCASKKKSHTQPQSQHAQAKPTTLSLPLTPESPNDPKGSPFENKTIERTLSVELSGTAGLTPPTTPPHKANQDNPFKASPKLKPSCKTVVPPPTKRARYSECSGTQGSHSTKKGPEQSELYAQLSKSSGLSRGHEERKTKRPSLRLFGDHDYCQSLNSKTDILINISQELQDSRQLDFKDASCDWQGHICSSTDSGQCYLRETLEASKQVSPCSTRKQLQDQEIRAELNKHFGHPCQAVFDDKSDKTSELRDGDFSNEQFSKLPVFINSGLAMDGLFDDSEDESDKLSYPWDGTQPYSLFDVSPSCSSFNSPCRDSVSPPKSLFSQRPQRMRSRSRSFSRHRSCSRSPYSRSRSRSPGSRSSSRSCYYYESSHYRHRTHRNSPLYVRSRSRSPYSRRPRYDSYEAYEHERLKRDEYRKEHEKRESERAKQRERQKQKAIEERRVIYVGKIRPDTTRTELRDRFEVFGEIEECTVNLRDDGDSYGFITYRYTCDAFAALENGYTLRRSNETDFELYFCGRKQFFKSNYADLDTNSDDFDPASTKSKYDSLDFDSLLKEAQRSLRR
On to B3, for which the binding entry in assay [4] is “binds”.

B4: PGC-1α, full-length mouse (expressed in transfected HEK293A cells) (protein, UniProt O70343 1-797)
chain: MAWDMCSQDSVWSDIECAALVGEDQPLCPDLPELDLSELDVNDLDTDSFLGGLKWCSDQSEIISNQYNNEPANIFEKIDEENEANLLAVLTETLDSLPVDEDGLPSFDALTDGAVTTDNEASPSSMPDGTPPPQEAEEPSLLKKLLLAPANTQLSYNECSGLSTQNHAANHTHRIRTNPAIVKTENSWSNKAKSICQQQKPQRRPCSELLKYLTTNDDPPHTKPTENRNSSRDKCASKKKSHTQPQSQHAQAKPTTLSLPLTPESPNDPKGSPFENKTIERTLSVELSGTAGLTPPTTPPHKANQDNPFKASPKLKPSCKTVVPPPTKRARYSECSGTQGSHSTKKGPEQSELYAQLSKSSGLSRGHEERKTKRPSLRLFGDHDYCQSLNSKTDILINISQELQDSRQLDFKDASCDWQGHICSSTDSGQCYLRETLEASKQVSPCSTRKQLQDQEIRAELNKHFGHPCQAVFDDKSDKTSELRDGDFSNEQFSKLPVFINSGLAMDGLFDDSEDESDKLSYPWDGTQPYSLFDVSPSCSSFNSPCRDSVSPPKSLFSQRPQRMRSRSRSFSRHRSCSRSPYSRSRSRSPGSRSSSRSCYYYESSHYRHRTHRNSPLYVRSRSRSPYSRRPRYDSYEAYEHERLKRDEYRKEHEKRESERAKQRERQKQKAIEERRVIYVGKIRPDTTRTELRDRFEVFGEIEECTVNLRDDGDSYGFITYRYTCDAFAALENGYTLRRSNETDFELYFCGRKQFFKSNYADLDTNSDDFDPASTKSKYDSLDFDSLLKEAQRSLRR
In the case of B4, in assay [5], the binding result is “binds”.
